Measured values published in the supplement of paper PMC3334620.
The full ranking holds about 33,000 sequences; the median of “E-score (-0.5 to 0.5)” is about -0.015, and the highest 2% start at about 0.3. The list shows a part of the results.

Molecular target: T1, Abf1 (UniProt P14164)
T1 sequence: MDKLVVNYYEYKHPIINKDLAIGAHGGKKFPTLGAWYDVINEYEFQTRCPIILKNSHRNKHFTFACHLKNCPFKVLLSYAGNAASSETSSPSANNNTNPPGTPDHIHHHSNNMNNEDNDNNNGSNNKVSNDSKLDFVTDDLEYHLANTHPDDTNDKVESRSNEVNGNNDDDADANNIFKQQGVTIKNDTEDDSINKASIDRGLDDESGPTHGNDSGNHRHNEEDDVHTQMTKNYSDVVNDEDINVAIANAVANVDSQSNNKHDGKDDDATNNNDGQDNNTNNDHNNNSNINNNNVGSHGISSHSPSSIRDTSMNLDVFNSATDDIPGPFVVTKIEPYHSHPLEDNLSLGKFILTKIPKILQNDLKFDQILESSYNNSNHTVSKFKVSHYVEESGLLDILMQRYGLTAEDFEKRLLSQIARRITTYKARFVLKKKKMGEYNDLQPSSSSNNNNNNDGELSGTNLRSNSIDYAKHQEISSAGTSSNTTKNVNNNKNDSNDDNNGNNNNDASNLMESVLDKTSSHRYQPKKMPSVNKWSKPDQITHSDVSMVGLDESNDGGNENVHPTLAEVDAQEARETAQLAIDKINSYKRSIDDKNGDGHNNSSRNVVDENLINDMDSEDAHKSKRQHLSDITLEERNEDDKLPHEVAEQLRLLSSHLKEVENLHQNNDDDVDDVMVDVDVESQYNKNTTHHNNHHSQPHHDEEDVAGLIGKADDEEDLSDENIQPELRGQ
Assay: PBM E-score (8-mer binding enrichment) (E-score (-0.5 to 0.5)); higher = stronger / more preferred TF binding
Conditions: protein concentration: 200 nM; construct: GST-full length
Outline: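 Yeast transcription factors carrying a GST tag, as full-length proteins or DNA-binding domains, were produced by PURExpress in vitro transcription/translation. About 100-200 nM protein was applied to universal all-10-mer Agilent arrays, double-stranded by primer extension on fresh or once-stripped slides. Bound protein was detected with fluorescent anti-GST, and scans were normalised with masliner. The Universal PBM Analysis Suite gave each ungapped eight-base word, pooled with its reverse complement, an E-score, a modified Wilcoxon-Mann-Whitney statistic.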

| Sequence | PBM E-score |
| --- | --- |
| ACCGTCCC | 0.134 |
| CTTCTAGA | -0.112 |
| GAAAGAGA | -0.308 |
| ATGCAGTA | 0.062 |
| ACTTTAAT | 0.0587 |
| AACAGAAT | -0.102 |
| ACGGAGCG | 0.14 |
| GTATTCAA | 0.0611 |
| CTAAATCA | 0.214 |
| AGAAATAG | 0.0373 |
| CATTTTGG | 0.124 |
| GATACACA | 0.0374 |
| CTCTCCGA | -0.209 |
| ACACTGCT | -0.318 |
| GTACCCGA | -0.137 |
| ACTGAGAG | -0.0505 |
| AGCGATTG | -0.0461 |
| TGCCAGAA | -0.152 |
| GAGAAGAA | 0.0903 |
| GTGGCATA | -0.00846 |
| GGGTCTGA | -0.273 |
| CCTACATA | -0.147 |
| AGTCGAAA | -0.0186 |
| AGGTTCTG | -0.23 |
| TACTTGCA | -0.0785 |

| Sequence | PBM E-score |
| --- | --- |
| ACGGTACG | 0.283 |
| ACTTCTAA | 0.0967 |
| GCCCGTCC | -0.0682 |
| GACAGTCA | 0.0421 |
| TAGTTTCA | 0.121 |
| GTAAATAA | 0.211 |
| ATATGCCG | 0.174 |
| AGTAGCTC | -0.138 |
| GGAACTCC | -0.154 |
| ACTGGACT | -0.0415 |
| CACCTCGG | -0.143 |
| TACATGAA | -0.0145 |
| CACAGACG | 0.103 |
| GTCCTGTA | 0.00173 |
| GACATAAA | 0.185 |
| GTATCCTA | 0.146 |
| AGGACATA | 0.0984 |
| CGAGTGCG | 0.098 |
| AGAGACTC | -0.00594 |
| CTAGAGTC | -0.226 |
| GTGTAAAC | -0.0109 |
| ATGTATCG | 0.211 |
| ATCAGGTG | 0.0231 |
| CTAAAGCA | 0.0813 |
| AAGGCATC | -0.158 |

Reformatted in CSV form: part of the list above
Sequence,PBM E-score
CACCTCGG,-0.143
TACATGAA,-0.0145
CACAGACG,0.103
GTCCTGTA,0.00173
GACATAAA,0.185

Additional results.

| Sequence | PBM E-score |
| --- | --- |
| ACGTTTGG | -0.0459 |
| ACACTGCA | -0.14 |
| ACCGGGGA | -0.293 |
| CTTCTTCC | -0.271 |
| TGAGATCA | 0.268 |
| AGCCAACC | -0.111 |
| AAGACGAC | 0.164 |
| AATCAAAT | 0.0492 |
| ATTTAACA | 0.0814 |
| AGAAAGGA | -0.228 |
| ACCAGAAC | -0.0176 |
| ATACTCAT | 0.0261 |
| CGCGTCAG | -0.106 |
| GAGAGGAA | -0.111 |
| CGGAAAAA | 0.058 |
| AACTGTGG | -0.183 |
| CCAATTCC | -0.00888 |
| ATTATCGC | 0.295 |
| AGGCAGGC | -0.18 |
| ATGGACAA | 0.119 |
| AGGGTATG | -0.123 |
| CCCCGGGG | -0.261 |
| GAAGCACA | -0.0155 |
| CAATCCCG | -0.103 |
| ATACCGTG | 0.201 |

| Sequence | PBM E-score |
| --- | --- |
| ACTACTTG | -0.00073 |
| ATTTCTAC | 0.0648 |
| AACTTAAC | 0.112 |
| GCACGTGA | 0.0942 |
| CATTCAGA | -0.00928 |
| ATCCGCTA | 0.0201 |
| GCGTGTCC | -0.0159 |
| ACACATGT | 0.036 |
| CATTAACG | 0.0059 |
| AAGAATCA | -0.00225 |
| ACCTGGGC | -0.278 |
| GGTTGAAC | 0.037 |
| ATATCACG | 0.401 |
| CGCATAAA | 0.169 |
| CCTGATTC | -0.0368 |
| ATTAAGAC | -0.00422 |
| TGTACACA | 0.0657 |
| ACCCCGGA | 0.00074 |
| GCACTCAA | -0.288 |
| AGCACCGA | 0.162 |
| ATACTGGA | 0.157 |
| AAAAGGCA | 0.0834 |
| AAAGTGCT | 0.0641 |
| CTGACAAA | 0.0266 |
| CAACCACA | 0.135 |

Four successive entries out of the list so far, quoted:

| Sequence | PBM E-score |
| --- | --- |
| AAAAGGCA | 0.0834 |
| AAAGTGCT | 0.0641 |
| CTGACAAA | 0.0266 |
| CAACCACA | 0.135 |

Reprinted at random: 2 records from the list

| Sequence | PBM E-score |
| --- | --- |
| AGCACCGA | 0.162 |
| CCTGATTC | -0.0368 |

Following part:

| Sequence | PBM E-score |
| --- | --- |
| AAAGGATT | -0.105 |
| ACATAGAC | -0.0915 |
| ACACATCC | 0.0452 |
| GACTGCAA | -0.172 |
| CGCCCCGC | -0.238 |
| GGTGTTGA | -0.0204 |
| AAGGCAAT | -0.105 |
| ATAGCCTG | -0.137 |
| AAGCCCAG | -0.179 |
| AACGTACT | 0.267 |
| TCCAATAA | 0.0219 |
| TAACATGA | 0.201 |
| AAGCTTAC | -0.0896 |
| TCGGTGAA | 0.115 |
| CAGTGCTC | -0.125 |
| ATTAAGCA | 0.0415 |
| CGCCCTGC | -0.00866 |
| GAGGGAGA | -0.215 |
| AAAACCTC | -0.0135 |
| ACTGTGCA | 0.0139 |
| CGAGGTTA | -0.00406 |
| CCTTTTTA | 0.044 |
| TGAGGCCA | -0.111 |
| CGTAAATC | 0.131 |
| AGCCTACG | 0.164 |

| Sequence | PBM E-score |
| --- | --- |
| CATTGGAC | -0.101 |
| AATCTATA | 0.118 |
| ATAGGATG | 0.156 |
| AAGCGTAC | -0.198 |
| CGGGGTGA | 0.0917 |
| AGCGAGGC | -0.0881 |
| ATAGTAAG | -0.0777 |
| CACGTACA | 0.0758 |
| AGTCCGCC | -0.228 |
| GATTTAGA | 0.135 |
| CGCAACCG | 0.0292 |
| GACTTCGA | -0.165 |
| GCGAGTTA | 0.0994 |
| CAGCTTCG | 0.0552 |
| GGACCACA | -0.0335 |
| CGTTTTAG | 0.0296 |
| ACGAAGTA | 0.169 |
| AAAGTGTT | 0.0602 |
| GCTCAGGA | -0.105 |
| GGACTGTA | 0.107 |
| ACATCGCT | 0.227 |
| CGGCAAAC | 0.0403 |
| ACTCGGGG | -0.157 |
| AGGCAGAT | 0.0196 |
| AATGCGGT | -0.126 |

| Sequence | PBM E-score |
| --- | --- |
| CCTCCAGA | -0.177 |
| AGGTTCCA | -0.239 |
| TAAATGCA | 0.0499 |
| ATCATTGG | 0.208 |
| CATCCCTC | -0.081 |
| TAATTAAA | 0.051 |
| GGAGTCCA | -0.224 |
| CAACGGCG | 0.193 |
| AGTGTTGC | -0.049 |
| TAATCGCA | 0.125 |
| AGTCAGAG | -0.127 |
| AAGAGAAG | 0.0526 |
| AGCGTTGC | -0.118 |
| ACGACAGG | 0.05 |
| AGGTTCGC | -0.26 |
| AATATGTA | 0.159 |
| ACTCACCC | -0.0575 |
| ACTCCGCC | -0.174 |
| TAGAACGA | 0.26 |
| ATACACCC | 0.0364 |
| CAAGTGAA | -0.12 |
| TGAACGAA | 0.126 |
